From the supplement of paper PMC4604168 (melanoma cell lines)
The other results are listed elsewhere or left out. Many values rest on one well or one pass, so single values are uncertain.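 Imaging used 1,536-well plates; nuclei positive for cleaved PARP by antibody were divided by total DNA-stained nuclei to yield the apoptosis fraction. Doses for screening kept most cells viable, and cell lines differ markedly in resting and induced cleaved-PARP levels.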

These molecules were tested on COLO792 (assay: cleaved PARP positive nuclei fraction relative to DMSO control; melanoma cells; higher = more apoptosis). Conditions: library dose: low library concentration; 72 h.
In the case of `N#CC[C@H](C1CCCC1)n1cc(-c2ncnc3[nH]ccc23)cn1` [ruxolitinib] + COc1ccc2c(c1)CCC1C2CCC2(C)C(NCCCCCCN3C(=O)C=CC3=O)CCC12 [U73122] (first compound 1 µM, partner dose 0.4 µM), the “cleaved PARP positive nuclei fraction” value is reported as 197%.
`CCCCCCCCCCCCCCCCCCOP(=O)([O-])OC1CC[N+](C)(C)CC1` [Perifosine] + O=C(O)C(=O)Nc1sc2c(c1C(=O)O)CCNC2 [TCS401] (first compound 0.4 µM, partner dose 1.66667 µM) was tested, and the “cleaved PARP positive nuclei fraction” value was 71.6%.
For `Cc1cn(-c2cc(NC(=O)c3ccc(C)c(Nc4nccc(-c5cccnc5)n4)c3)cc(C(F)(F)F)c2)cn1` [nilotinib] + COc1cc(N2CCC(N3CCN(C)CC3)CC2)ccc1Nc1ncc(Cl)c(Nc2ccccc2S(=O)(=O)C(C)C)n1 [NVP-TAE684] (first compound 0.2 µM, partner dose 0.08 µM), the “cleaved PARP positive nuclei fraction” value was 89%.
For `Cc1ccc(Nc2nccc(N(C)c3ccc4c(C)n(C)nc4c3)n2)cc1S(N)(=O)=O` [Pazopanib] + O=C(Nc1ccccc1)c1cc([N+](=O)[O-])ccc1Cl [GW9662] (first compound 0.4 µM, partner dose 2 µM), the “cleaved PARP positive nuclei fraction” value was 58.1%.
`O=C(Nc1cc(C(F)(F)F)cc(C(F)(F)F)c1)c1cc(Cl)ccc1O` + O=C(O)C(=O)Nc1sc2c(c1C(=O)O)CCNC2 [TCS401] (first compound 0.016 µM, partner dose 1.66667 µM) was tested, and the “cleaved PARP positive nuclei fraction” value was 114%.

The molecules below were run on COLO800 in the same assay as above. Conditions: library dose: low library concentration; 72 h.
With `Cc1cc(Nc2cc(N3CCN(C)CC3)nc(Sc3ccc(NC(=O)C4CC4)cc3)n2)n[nH]1` [Tozasertib] + N#Cc1c(O)c2c(-c3ccc(-c4ccccc4O)cc3)csc2[nH]c1=O [A769662] (first compound 0.006 µM, partner dose 2 µM) the “cleaved PARP positive nuclei fraction” value was 185%.
In the case of `O=C(Nc1cc(C(F)(F)F)cc(C(F)(F)F)c1)c1cc(Cl)ccc1O` + COc1ccc(COc2ccc(Cc3cnc(N)nc3N)cc2OC)cc1 [GW2580] (first compound 0.016 µM, partner dose 1 µM), the “cleaved PARP positive nuclei fraction” value is reported as 109%.
For `O=C(/C=C/c1cccnc1)NCCCCC1CCN(C(=O)c2ccccc2)CC1` + COc1cc(N2CCC(N3CCN(C)CC3)CC2)ccc1Nc1ncc(Cl)c(Nc2ccccc2S(=O)(=O)C(C)C)n1 [NVP-TAE684] (first compound 0.01 µM, partner dose 0.08 µM), the “cleaved PARP positive nuclei fraction” value was 589%.
In the case of `N#CC[C@H](C1CCCC1)n1cc(-c2ncnc3[nH]ccc23)cn1` [ruxolitinib] + Cn1cc(/C=C2\C(=O)Nc3cccnc32)c2ccccc21 [GW441756] (first compound 1 µM, partner dose 0.4 µM), the “cleaved PARP positive nuclei fraction” value is reported as 53.3%.
`CCCCCCCCCCCCCCCCCCOP(=O)([O-])OC1CC[N+](C)(C)CC1` [Perifosine] + Oc1nc(-c2ccc(C(F)(F)F)cc2)nc2c1CSCC2 [XAV939] (first compound 0.4 µM, partner dose 2 µM) was tested, and the “cleaved PARP positive nuclei fraction” value was 68.6%.
With `O=C(/C=C/c1cccnc1)NCCCCC1CCN(C(=O)c2ccccc2)CC1` + Oc1nc(-c2ccc(C(F)(F)F)cc2)nc2c1CSCC2 [XAV939] (first compound 0.01 µM, partner dose 2 µM) the “cleaved PARP positive nuclei fraction” value was 245%.
`Cc1ccc(Nc2nccc(N(C)c3ccc4c(C)n(C)nc4c3)n2)cc1S(N)(=O)=O` [Pazopanib] + N#Cc1c(O)c2c(-c3ccc(-c4ccccc4O)cc3)csc2[nH]c1=O [A769662] (first compound 0.4 µM, partner dose 2 µM) was tested, and the “cleaved PARP positive nuclei fraction” value was 81.9%.
With `N#CC[C@H](C1CCCC1)n1cc(-c2ncnc3[nH]ccc23)cn1` [ruxolitinib] + COc1cc2ncnc(Nc3ccc(Oc4ccccc4)cc3)c2cc1OC [SrcI1] (first compound 1 µM, partner dose 2 µM) the “cleaved PARP positive nuclei fraction” value was 49.9%.
`O=C(Nc1cc(C(F)(F)F)cc(C(F)(F)F)c1)c1cc(Cl)ccc1O` + CCN(CC)CCCCNc1ncc2cc(-c3cc(OC)cc(OC)c3)c(NC(=O)NC(C)(C)C)nc2n1 [PD173074] (first compound 0.016 µM, partner dose 0.1 µM) was tested, and the “cleaved PARP positive nuclei fraction” value was 142%.
In the case of `CCCCCCCCCCCCCCCCCCOP(=O)([O-])OC1CC[N+](C)(C)CC1` [Perifosine] + COc1ccc2c(c1)CCC1C2CCC2(C)C(NCCCCCCN3C(=O)C=CC3=O)CCC12 [U73122] (first compound 0.4 µM, partner dose 0.4 µM), the “cleaved PARP positive nuclei fraction” value is reported as 133%.
